Data set [1] addresses CD30 (on Karpas 299 ALCL cells) (human) (UniProt P28908). The data set can be described thus: flow cytometry (cell binding). The settings on record: PEI-citrate/Cy5-ssDNA without aptamer, PEI N to ssDNA P ratio <=1:1, no binding to Karpas 299 cells; non-covalently incorporated into PEI-citrate nanocores; 2x10^5 cells in 0.5 ml culture medium, 30 min, room temperature; nanocomplexes with PEI N to total oligonucleotide P ratio 1:1; protein on the cell surface; label: 5' Cy5; single-stranded DNA; letters put together from the description.

Sequences of proteins named here, by UniProt entry; tags and fusion partners are left off. Residues count along the entry.
UniProt P28908, 19-595: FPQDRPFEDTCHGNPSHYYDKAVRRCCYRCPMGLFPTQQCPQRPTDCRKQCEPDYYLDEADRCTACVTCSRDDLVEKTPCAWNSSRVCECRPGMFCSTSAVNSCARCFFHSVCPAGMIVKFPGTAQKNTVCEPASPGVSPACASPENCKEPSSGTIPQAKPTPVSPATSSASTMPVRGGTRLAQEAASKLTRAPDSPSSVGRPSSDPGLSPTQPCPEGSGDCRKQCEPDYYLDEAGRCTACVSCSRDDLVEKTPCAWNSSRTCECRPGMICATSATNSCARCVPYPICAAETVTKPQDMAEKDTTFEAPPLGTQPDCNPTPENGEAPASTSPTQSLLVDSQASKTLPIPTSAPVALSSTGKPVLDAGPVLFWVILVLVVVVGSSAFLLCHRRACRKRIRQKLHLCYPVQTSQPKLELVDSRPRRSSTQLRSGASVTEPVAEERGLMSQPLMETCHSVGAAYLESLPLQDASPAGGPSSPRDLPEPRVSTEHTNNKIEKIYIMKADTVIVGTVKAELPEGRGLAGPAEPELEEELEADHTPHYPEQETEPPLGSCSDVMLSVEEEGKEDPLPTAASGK

Data set [2] has the same target. The data set can be described thus: flow cytometry and fluorescence microscopy (cell binding). To be noted: aptamer in PEI-citrate nanocomplex with Cy5-ssDNA reporter, binds Karpas 299, not CD30-negative Jurkat; none stated; non-covalently incorporated into PEI-citrate nanocores; 2x10^5 cells in 0.5 ml culture medium, 30 min, room temperature; nanocomplexes with PEI N to total oligonucleotide P ratio 1:1; protein on the cell surface; label: none on aptamer, Cy5 on co-loaded ssDNA reporter.

For at least one entry, the source does not settle the construct or the ends of the probe. Results from cells or extracts need not show a direct contact. For some assays here: No signal at the amounts used counts as a negative. For some assays here: At least one verdict was read from the data and is not stated in words by the source.

As to “CACTTAGTAGTGTACCGCCTT [Cy5-ssDNA reporter (ALK siRNA sense sequence)]”, the binding result in data set [1] is “no binding”.

In the case of “GAUUCGUAUGGGUGGGAUCGGGAAGGGCUACGAACACCG [CD30 RNA aptamer]”, the binding result in data set [2] is “binds”.

The values are drawn from PMC3045295.
